Biological target: T1, Peroxisome proliferator-activated receptor gamma (Homo sapiens, UniProt P37231)
T1 sequence (P37231 whole entry): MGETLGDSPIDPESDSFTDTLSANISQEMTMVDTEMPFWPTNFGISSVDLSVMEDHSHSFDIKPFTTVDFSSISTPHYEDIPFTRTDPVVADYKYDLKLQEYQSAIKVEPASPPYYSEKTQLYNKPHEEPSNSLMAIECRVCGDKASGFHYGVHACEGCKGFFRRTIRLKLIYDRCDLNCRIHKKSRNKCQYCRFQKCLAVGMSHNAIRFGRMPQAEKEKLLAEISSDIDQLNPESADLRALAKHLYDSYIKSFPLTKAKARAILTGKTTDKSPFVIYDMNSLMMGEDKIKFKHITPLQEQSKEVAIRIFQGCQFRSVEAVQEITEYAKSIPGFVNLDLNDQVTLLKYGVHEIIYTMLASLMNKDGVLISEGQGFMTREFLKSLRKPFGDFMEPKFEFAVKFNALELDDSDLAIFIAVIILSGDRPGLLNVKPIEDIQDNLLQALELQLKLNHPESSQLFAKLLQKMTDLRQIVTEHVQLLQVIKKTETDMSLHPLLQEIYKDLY

Row | Structure (SMILES) | IC50
1 | O=C(O)COc1ccc(SCc2ccc(OCc3ccc(C(F)(F)F)cc3)cc2)c2c1CCC2 | > 10 µM
2 | O=C(O)COc1ccc(SCc2cc(F)ccc2OCc2ccc(C(F)(F)F)cc2)c2c1CCC2 | > 10 µM
3 | O=C(O)COc1ccc(SCc2ccc(OCc3ccc(OC(F)(F)F)cc3)cc2)c2c1CCC2 | < 11.1 µM
4 | Cc1cc(SCc2ccc(OCc3ccc(C(F)(F)F)cc3)cc2)ccc1OCC(=O)O | > 11 µM
5 | O=C(O)COc1ccc(SCc2ccc(OCc3ccccc3)cc2)c2c1CCC2 | 7.57 µM
6 | O=C(O)COc1ccc(SCc2ccccc2OCc2ccc(C(F)(F)F)cc2)c2c1CCC2 | > 10 µM
7 | O=C(O)COc1ccc(SCc2ccc(OCc3ccc(F)cc3C(F)(F)F)cc2)c2c1CCC2 | < 11.1 µM

— ChEMBL document CHEMBL1148881 (Bioorg Med Chem Lett, 2007)
